No constants are given. Whether binding was seen depends on the method and setting. Some results given as binding are weak or reduced against the parent protein; the word gives no strength. For some assays here: Sequences can lack the tags named with a protein.
T1: CD44 v7/8 peptide (…) (human)
T1 sequence (peptide): QAGRRMDMDSSHSIT

Amino acid sequences for entries named in this document (tags omitted). A change or cut given only in a name is not applied to a line headed by its entry.
UniProt P16070: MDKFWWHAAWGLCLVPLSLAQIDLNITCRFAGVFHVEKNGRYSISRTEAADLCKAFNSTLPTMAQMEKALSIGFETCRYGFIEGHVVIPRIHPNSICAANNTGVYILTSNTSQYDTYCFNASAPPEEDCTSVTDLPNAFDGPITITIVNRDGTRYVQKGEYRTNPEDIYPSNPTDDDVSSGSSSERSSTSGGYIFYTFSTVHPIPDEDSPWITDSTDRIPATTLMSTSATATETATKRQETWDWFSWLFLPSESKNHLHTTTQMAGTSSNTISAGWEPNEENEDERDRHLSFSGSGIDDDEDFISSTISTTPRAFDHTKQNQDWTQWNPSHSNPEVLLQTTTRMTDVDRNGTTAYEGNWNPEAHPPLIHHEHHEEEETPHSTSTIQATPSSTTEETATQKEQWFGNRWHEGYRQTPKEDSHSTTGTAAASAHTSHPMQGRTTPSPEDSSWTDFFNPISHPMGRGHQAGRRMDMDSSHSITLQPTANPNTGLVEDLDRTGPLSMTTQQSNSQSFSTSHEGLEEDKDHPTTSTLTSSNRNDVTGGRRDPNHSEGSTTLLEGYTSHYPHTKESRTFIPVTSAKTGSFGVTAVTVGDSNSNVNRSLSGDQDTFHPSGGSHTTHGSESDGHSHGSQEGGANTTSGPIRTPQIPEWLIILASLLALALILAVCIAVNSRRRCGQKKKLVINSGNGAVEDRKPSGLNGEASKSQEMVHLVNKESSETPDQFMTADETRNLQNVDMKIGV


What was measured:
[1] = target: CD44 v7/8 (human CD44 v7/8 splice variant) on CD44+ cells (human) (UniProt P16070); test: flow cytometry on A253 cells
[2] = target: CD44 v7/8 (human CD44 v7/8 splice variant) on CD44+ cells (human) (UniProt P16070); test: flow cytometry on D562 cells
[3] = target: T1, CD44 v7/8 peptide (…) (human); test: flow cytometry on D562 cells, peptide competition
[4] = target: CD44 v7/8 (human CD44 v7/8 splice variant) on CD44+ cells (human) (UniProt P16070); test: flow cytometry on CD44+ A253 cells, antibody titration
[5] = target: CD44 v7/8 (human CD44 v7/8 splice variant) on CD44+ cells (human) (UniProt P16070); test: flow cytometry on CD44+ Detroit 562 (D562) cells, one antibody concentration (not given), no peptide
HIS029 = test: peptide blocking in flow cytometry: binding of HIS029 to CD44 v7/8 on D562 cells is blocked by the peptide; peptide concentration not given

Binder | binding [1] | binding [2] | binding [3] | binding [4] | binding [5] | binding (HIS029)
HIS029 (antibody, V domains shown, Monoclonal antibody from a hybridoma, V regions amplified with mouse Ig primers; also called anti-CD44 v7/8 antibody; antibody clone HIS029) VH: QVHLQQPGAELVRPGASVKLSCKASGYTFTNYWINWVKQRPGQGLEWIGNIYPSDSYTNYNQKFKDKATLTVDKSSSTAYVHLSSPTSEDSAVYYCTKWGDSDYWGQGTTLTVSS VL: DIKMTQSPSSMYASLGERVTITCKASQDINRYLRWFQQKPGKSPKTLIYRANRLVDGVPSRFSGSGSGQDYSLTISSLEYEDMGIYYCLQYDEFPFTFGSGTKLEIK | binds | binds | binds | binds | binds | 
QAGRRMDMDSSHSIT [CD44 v7/8 peptide (…)] |  |  |  |  |  | binds
Humanized HIS029 (antibody, V domains shown, also called humanized HIS029 antibody) VH: QVQLVQSGSELKKPGASVKVSCKASGYTFTNYWINWVRQAPGQGLEWMGNIYPSDSYTNYNQKFKDRAVFSVDKSVSTAYLQISSLKAEDTAVYYCTKWGDSDYWGQGTTVTVSS VL: DIQMTQSPSSLSASVGDRVTITCKASQDINRYLRWFQQKPGKSPKTLIYRANRLVDGVPSRFSGSGSGQDYTLTISSLQPEDFATYYCLQYDEFPFTFGQGTKLEIK | binds |  |  | binds |  | 

Source: patent US20220049008A1 (MULTITUDE, published 2022)
